Laboratory results reported in US20080187577A1 (University of Texas, published 2008).
Results are given in words; binding and its absence hold for the method and conditions named. Some entries that bind do so weakly or less than the wild type.

Chains of the proteins cited; added tags and fusions are not shown. Lines headed by an entry give the natural chain unless they say otherwise; changes in a name come on top. Residues count along the entry.
UniProt P07355, residues 2-339: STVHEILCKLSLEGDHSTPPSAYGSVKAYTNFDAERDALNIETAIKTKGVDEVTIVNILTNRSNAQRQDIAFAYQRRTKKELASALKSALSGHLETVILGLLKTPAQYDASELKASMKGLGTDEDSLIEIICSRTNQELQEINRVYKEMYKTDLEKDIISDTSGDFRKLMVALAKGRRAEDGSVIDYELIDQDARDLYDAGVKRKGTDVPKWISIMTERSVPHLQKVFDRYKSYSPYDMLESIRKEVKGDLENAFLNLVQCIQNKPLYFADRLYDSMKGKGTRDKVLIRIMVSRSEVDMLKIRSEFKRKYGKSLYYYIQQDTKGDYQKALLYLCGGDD
UniProt P07356, residues 2-339: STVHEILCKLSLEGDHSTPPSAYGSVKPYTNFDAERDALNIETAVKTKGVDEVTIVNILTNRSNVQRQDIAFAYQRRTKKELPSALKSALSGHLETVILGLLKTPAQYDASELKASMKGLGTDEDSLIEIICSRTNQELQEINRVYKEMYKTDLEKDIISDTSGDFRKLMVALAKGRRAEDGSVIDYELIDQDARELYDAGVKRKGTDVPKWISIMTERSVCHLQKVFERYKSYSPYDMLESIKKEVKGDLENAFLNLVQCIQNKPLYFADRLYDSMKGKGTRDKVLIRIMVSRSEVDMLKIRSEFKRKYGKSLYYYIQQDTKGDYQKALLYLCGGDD
UniProt P06307: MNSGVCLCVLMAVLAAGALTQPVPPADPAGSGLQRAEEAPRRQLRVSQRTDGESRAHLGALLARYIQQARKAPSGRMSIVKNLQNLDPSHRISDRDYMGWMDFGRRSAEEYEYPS

Experiments:
[1] = target: Annexin II endogenous to human HCT-116 colon cancer cells and human colonic tissue samples (human) (UniProt P07355); assay: pull-down with progastrin-antibody, Western blot; immunofluorescence co-localization in HCT-116 cells (FIG. 4C)
[2] = target: Annexin II endogenous to human HCT-116 colon cancer cells and human colonic tissue samples (human) (UniProt P07355); assay: pull-down and co-localization in HCT-116 cells (FIG. 4C)
[3] = target: Annexin II endogenous to human HCT-116 colon cancer cells and human colonic tissue samples (human) (UniProt P07355); assay: immunofluorescence co-localization in patient adenoma and adenocarcinoma samples
[4] = target: Annexin II in colonic crypts of transgenic (Fabp-PG) mice (mouse) (UniProt P07356); assay: immunofluorescence co-localization in tissue (FIG. 4C panel iii)
CCK2R on AR42J cells = target: T1, CCK2R on AR42J cells (UniProt P30553 1-452, limits assumed); assay: displacement of ^125I-BH-CCK8 from AR42J cells
T1 construct: whole, on cells
T1 sequence (looked up): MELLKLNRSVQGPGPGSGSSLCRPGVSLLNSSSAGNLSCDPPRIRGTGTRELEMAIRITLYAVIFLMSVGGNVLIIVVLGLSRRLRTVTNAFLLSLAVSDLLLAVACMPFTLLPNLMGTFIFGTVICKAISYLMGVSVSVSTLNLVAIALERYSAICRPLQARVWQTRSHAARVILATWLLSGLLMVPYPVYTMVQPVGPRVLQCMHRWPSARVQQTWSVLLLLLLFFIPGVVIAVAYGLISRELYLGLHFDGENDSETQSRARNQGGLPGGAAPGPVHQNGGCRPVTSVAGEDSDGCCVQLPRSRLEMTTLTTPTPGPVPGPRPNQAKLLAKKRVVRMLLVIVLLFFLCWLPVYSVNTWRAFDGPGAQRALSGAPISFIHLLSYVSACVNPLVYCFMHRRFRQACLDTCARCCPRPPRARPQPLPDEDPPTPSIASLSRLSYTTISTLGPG

B1: progastrin (PG) expressed endogenously: autocrine PG of HCT-116 cells, PG of human adenomas/adenocarcinomas, human PG transgene in Fabp-PG mice (ligand)
chain: SWKPRSQQPDAPLGTGANRDLELPWLEQQGPASHHRRQLGPQGPPHLVADPSKKQGPWLEEEEEAYGWMDFGRRSAEDEN
binding [1]: binds
binding [2]: binds
binding [3]: binds
binding [4]: binds

DYMGWMDF (peptide, UniProt P06307 96-103, looked up, amidated peptide; the tracer form carries a ^125I-Bolton Hunter label) [cholecystokinin (CCK-8)]
binding (CCK2R on AR42J cells): binds

QGPWLEEEEEAYGWMDF (peptide, UniProt P01350 76-92, looked up, C-terminally amidated) [G17 (amidated gastrin, 17 amino acids)]
binding (CCK2R on AR42J cells): binds
